# Measurements reported in article PMC4409396.
# Protein sequences, listed by entry. Tags and fused reporters are not part of them. Lines headed by an entry give the natural chain unless they say otherwise; changes in a name come on top.
# UniProt Q01466: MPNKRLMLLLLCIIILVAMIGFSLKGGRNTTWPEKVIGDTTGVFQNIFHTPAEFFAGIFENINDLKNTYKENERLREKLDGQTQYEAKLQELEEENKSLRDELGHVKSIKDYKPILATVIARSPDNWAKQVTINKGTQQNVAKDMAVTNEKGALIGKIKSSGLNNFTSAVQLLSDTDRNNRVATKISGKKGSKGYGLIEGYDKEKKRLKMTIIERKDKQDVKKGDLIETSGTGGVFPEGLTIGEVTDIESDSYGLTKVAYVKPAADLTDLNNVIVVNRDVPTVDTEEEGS
# No constants are given. Whether binding was seen depends on the method and setting. Binding can be weak; no strength is given. Sequences can lack the tags named with a protein.
# Target: T1, His6-tagged FloA (Bacillus subtilis) (UniProt P54466)
# T1 sequence: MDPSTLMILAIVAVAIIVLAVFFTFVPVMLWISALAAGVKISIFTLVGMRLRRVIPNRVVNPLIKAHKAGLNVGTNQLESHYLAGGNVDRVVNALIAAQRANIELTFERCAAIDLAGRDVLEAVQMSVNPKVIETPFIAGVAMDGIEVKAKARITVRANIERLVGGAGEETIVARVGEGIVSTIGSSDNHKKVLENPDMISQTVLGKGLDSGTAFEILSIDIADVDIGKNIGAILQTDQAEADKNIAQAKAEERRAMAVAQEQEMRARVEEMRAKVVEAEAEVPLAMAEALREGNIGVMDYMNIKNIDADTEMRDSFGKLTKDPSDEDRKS
# Assay: native gel or EMSA; blue-native PAGE (4-20% gradient) of the membrane fraction, solubilised with 1% DDM, of B. subtilis overexpressing His6-FloA or His6-FloT; bands that held the flotillin found by anti-His immunoblot, cut and analysed by LC/MS
substance,measurement,value
MreC (from UniProt Q01466),binding,binds
